Measurements reported in patent US7049292B2, “Therapeutically effective peptides related to preproinsulin” (King's College London, priority 2004, dated 2006).
The source holds more than one record for some entries. The list is limited to them. There may be further records. The values listed for one entry differ, and nothing given here explains why; some may be repeats, others may stem from another dose, organism or construct than stated.

Tested on: anti-inflammatory (IL-10 secreting) CD4+ T lymphocytes in PBMCs
Experiment: IL-10 cytokine ELISPOT (tolerance assay) of PBMCs cultured with peptide
Format: cell-based, human

CC(C)C[C@H](NC(=O)[C@H](C)NC(=O)[C@H](CC(C)C)NC(=O)[C@@H]1CCCN1C(=O)[C@H](CCC(N)=O)NC(=O)[C@H](CC(C)C)NC(=O)[C@H](CO)NC(=O)CNC(=O)[C@H](C)NC(=O)CNC(=O)[C@@H]1CCCN1C(=O)CNC(=O)CNC(=O)CN)C(=O)N[C@@H](CCC(=O)O)C(=O)NCC(=O)N[C@@H](CO)C(=O)N[C@@H](CC(C)C)C(=O)N[C@@H](CCC(N)=O)C(=O)N[C@@H](CCCCN)C(=O)O
IL-10 response, stimulation index (SI): 7.0, 3.2, 19.2
